Drawing on PubChem BioAssay AID2685 (National Center for Advancing Translational Sciences (NCATS), 2010), this text covers cell number change and AC50 for 60 molecules.

Molecules are shown by their SMILES. This is one part of the list. These are further read-outs of the screen, such as a control signal, another cell line or another target. No call is given for them. The list favours compounds with an active or inconclusive main result. The note in brackets gives the kind of curve behind each potency; many fits are weak.

The experiment is described as follows: qHTS Assay for Lipid Storage Modulators in Drosophila S3 Cells.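 On cell number change: cells counted by Cell Tracker Red CMTPX staining in the red channel.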 To be noted: BODIPY lipid droplet fluorescence, 18-24 h; for cell number change: measured here: cell count max response, cells fed with added oleic acid. Put shortly: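 Laser-scanning cytometry quantifies lipid droplet accumulation (500–530 nm total intensity; droplet/cell object ratio) in oleic acid-fed (400 uM added) Drosophila S3 cells treated with a concentration series. 20 uM Triacsin C defined 100% inhibition.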
In general terms: qHTS replaces the single test concentration by a dilution series.

[1] abbreviates: measured here: cell number channel AC50, cells fed with added oleic acid.
Setting [2] is: measured here: lipid fluorescence (Fed channel) AC50, cells fed with added oleic acid.

Regarding `COc1ccccc1/C=N/n1cnnc1`, the cell number change came out at 32.5%. Also, the AC50 (commonly the concentration giving half of the maximal activity seen) under setting [1] was 9.2 µM [rising, partial curve].
As for `Cn1c(=O)[nH]c(=O)c2c1nc1n2CC(COc2ccc3ccccc3c2)O1` (configuration not stated), the cell number change was found to be 50.1%. Under setting [1], the AC50 was 3.66 µM [rising, partial curve]. Further, the AC50 under setting [2] is 13 µM [rising, partial curve].
Regarding `O=C(c1ccc(-c2nnc(Nc3cccc(Cl)c3)c3ccccc23)cc1)N1C[C@H]2C[C@H](C1)c1cccc(=O)n1C2`, the cell number change turned out to be 57.6%.
As for `O=C(COC(=O)c1ccccn1)NCc1cccc(Cl)c1`, the cell number change is -12%.
As to `CC(Oc1ccccc1)C(=O)Nc1ccc(NC(=O)c2ccccc2)cc1` (configuration not stated), the cell number change is -20%. In addition, under setting [2], the AC50 was 0.00651 µM [falling, full curve, poor fit].
Consider `CC(=O)c1ccc(N(CC(=O)NC2CCCC2)C(=O)CCC(=O)Nc2cc(C)on2)cc1`, for which the cell number change is 28.2%. In addition, the AC50 under setting [1] is 3.66 µM [rising, partial curve, poor fit].
As to `O=C(Oc1cccc([N+](=O)[O-])c1)N1CCCCC1`, the cell number change is 34.4%. The concentration at half-maximal activity (AC50) under setting [1] was 1.16 µM [rising, full curve, poor fit]. In addition, the AC50 under setting [2] was 25.9 µM [rising, single point].
`c1cncc(-c2ccc3[nH]ccc3c2)c1`: the cell number change is -48.6%. In addition, under setting [1], the AC50 was 0.92 µM [falling, full curve, poor fit]. Also, the half-maximal activity concentration (AC50) under setting [2] was 29.1 µM [falling, single point].
Consider `N#C/C(=N\Nc1ccc([N+](=O)[O-])cc1)C(N)=S`, for which the cell number change is -4.08%. The AC50 under setting [2] was 0.13 µM [falling, full curve, poor fit].
Consider `O=C(O)CSCc1cnn(-c2ccccc2)c1-n1cccc1`, for which the cell number change was -39.2%. Further, the AC50 under setting [1] is 32.6 µM [falling, single point].
Take `S=C(Nc1ccccc1)c1nc2ccccc2s1`: the cell number change was -4.27%. Further, under setting [1], the AC50 was 6.51 µM [falling, single point]. Besides, the AC50 under setting [2] is 8.2 µM [falling, partial curve].
On to `Cc1nc(C)c2c(=O)cc(-c3ccccc3)[nH]c2n1`, for which the cell number change is -3.58%. Also, under setting [2], the AC50 is 5.8 µM [falling, single point].
Take `O=C(COC(=O)c1ccc(N2CCCC2=O)cc1)c1ccccc1`: the cell number change was found to be 16.2%.
Still for that read-out and setting: the value for `Cc1ccc(C(=O)Nc2c3c(nn2C(C)(C)C)CS(=O)(=O)C3)cc1[N+](=O)[O-]` was -1.21%.
For the molecule `COCCn1c(SCCN2CCOCC2)nc2c1c(=O)[nH]c(=O)n2C`, the cell number change was -17.9%. For the same molecule, under setting [2], the AC50 was 0.206 µM [falling, full curve, poor fit].
As for `Cc1nn(C)c(C)c1S(=O)(=O)N1CCC(C(=O)Nc2ccc3c(c2)OCCO3)CC1`, the cell number change stood at 17.3%. In addition, the concentration at half-maximal activity (AC50) under setting [2] is 0.82 µM [rising, full curve, poor fit].
Regarding `CCN(CC)CCCC(C)NC(=O)c1ccc(C(F)(F)F)cc1` (configuration not stated), the cell number change is -3.39%.
For the molecule `COc1ccc2[nH]c(C)c(CCN3C(=O)OC(C)(C)C3(C)O)c2c1` (configuration not stated), the cell number change was 40.7%. In addition, the AC50 under setting [1] was 23.1 µM [rising, single point].
Consider `C=CCn1c(SCC(=O)NCc2ccc3c(c2)OCO3)nnc1C1COc2ccccc2O1` (configuration not stated), for which the cell number change was -60.9%. Besides, under setting [1], the AC50 was 23.1 µM [falling, partial curve].
Consider `COc1ccc(CC(NC(C)=O)C(=O)NC2CCN(C(=O)c3cc(OC)c(OC)c(OC)c3)CC2)cc1` (configuration not stated), for which the cell number change was determined as 14.8%. Further, the AC50 under setting [2] was 4.11 µM [rising, single point].
For `COc1ccc(Oc2ncnc3c2ncn3Cc2ccccc2)cc1`, the AC50 was 0.326 µM [rising, full curve, poor fit] under setting [1] and 0.651 µM [rising, full curve] under setting [2].
As to `COc1nnnc2c1sc1nc(N3CCOCC3)c3c(c12)CC(C)(C)OC3`, the cell number change was -10.7%.
For `CCCc1[nH]nc2c1C(c1ccc(O)c(OC)c1)C(C#N)=C(N)O2` (configuration not stated), the cell number change was -9.32%. Also, under setting [2], the AC50 is 29.1 µM [falling, single point].
As to `Cc1ccc(NC(=O)C2CC(=O)n3c(nc4ccccc43)N2)cc1` (configuration not stated), the cell number change is -13.5%. The AC50 under setting [1] was 5.8 µM [rising, partial curve, poor fit]. For the same molecule, under setting [2], the AC50 is 6.51 µM [rising, partial curve, poor fit].
Take `CC1CCN(Cc2nnnn2CCCC(=O)NCCN2CCOCC2)CC1`: the cell number change was 17.3%. Moreover, the AC50 under setting [2] is 18.4 µM [rising, single point].
For the molecule `COc1cc(-c2nnc(SCC(=O)N(Cc3ccccc3)C(C)(C)C)o2)cc(OC)c1OC`, the cell number change is -9.05%.
For `Cc1ccc(OCC(=O)c2c[nH]c3ccccc23)c([N+](=O)[O-])n1`, the cell number change was -29.2%. Under setting [1], the AC50 was 0.731 µM [rising, single point].
With `CCOC(=O)c1c(C)[nH]c(C(=O)COC(=O)c2cc(C)oc2C)c1C`, the cell number change is -31.6%. Moreover, under setting [1], the AC50 is 25.9 µM [falling, single point]. Under setting [2], the AC50 was 20.6 µM [falling, partial curve, poor fit].
Regarding `Cc1sc2ncnc(N3CCN(S(=O)(=O)c4ccccc4)CC3)c2c1C`, the cell number change is -13.2%.
For `Clc1ccc2nsnc2c1NC1=NCCN1`, the AC50 under setting [2] was 23.1 µM [rising, single point].
In the case of `CCOC(=O)N1CCN(Cc2c(F)cccc2F)CC1`, the cell number change is 3.81%. Under setting [2], the AC50 was 1.46 µM [rising, full curve, poor fit].
As to `O=C(NN=C(Cc1ccccc1)Cc1ccccc1)c1ccccc1F`, the cell number change came to 88.9%. Under setting [1], the AC50 was 0.0206 µM [rising, full curve].
Turning to `O=C(Oc1ccc(Br)cc1C(=S)N1CCOCC1)c1cccc([N+](=O)[O-])c1`, the cell number change is -7.89%. The AC50 under setting [2] is 6.31 µM [falling, partial curve].
Turning to `Cc1cccc([C@H](NC(=O)OC(C)(C)C)C(=O)OC(C)(C)C)c1`, the cell number change came to 5.76%. Moreover, the AC50 under setting [2] is 0.461 µM [rising, partial curve].
Turning to `COc1cc(COC(=O)Oc2ccc(CNC(C)=O)cc2OC)c([N+](=O)[O-])cc1OC`, the cell number change was 14.7%. Under setting [2], the AC50 was 1.46 µM [rising, full curve].
As to `COc1ccc(S(=O)(=O)O/N=C2\CCCc3ccccc32)cc1`, the cell number change is -31.6%. Also, the half-maximal activity concentration (AC50) under setting [1] was 0.0731 µM [falling, full curve, poor fit]. The AC50 under setting [2] was 25.9 µM [falling, partial curve].
For the molecule `COc1ccc2c(c1)c1ncn(CCCN3CCOCC3)c(=O)c1n2C`, the cell number change came out at 57.9%. In addition, the AC50 under setting [1] is 2.59 µM [rising, full curve, poor fit]. Moreover, the AC50 under setting [2] is 2.06 µM [rising, partial curve].
Consider `COc1ccc(NS(=O)(=O)c2ccc3nc(COc4ccc(C#N)cc4)[nH]c3c2)cc1`, for which the cell number change was -33.3%. Besides, the AC50 under setting [1] was 0.013 µM [falling, full curve].
On to `N#CC(c1ccc(O)cc1)N1CCCCC1` (configuration not stated), for which the cell number change is -115%. The AC50 under setting [1] was 23.1 µM [falling, single point]. Besides, the AC50 under setting [2] was 0.116 µM [falling, full curve, poor fit].
In the case of `CCCCNC(=O)Oc1cc(CCl)on1`, the cell number change was -47.2%. In addition, the AC50 under setting [2] is 1.84 µM [falling, partial curve, poor fit].
Consider `CC(C)Cc1nnc(NC(=O)c2cc([N+](=O)[O-])ccc2N2CCOCC2)s1`, for which the cell number change is -24.6%. Further, under setting [2], the AC50 was 6.51 µM [rising, single point].
For the molecule `COCCNC(=O)CN(Cc1ccc(F)cc1)C(=O)CCC(=O)Nc1nccs1`, the cell number change was -1.3%.
Same read-out and setting: the value for `COc1ccc(C(=O)Cn2ccsc2=NC(C)=O)cc1` was 79.6%.
Regarding `O=C1/C(=C\c2ccc(O)cc2)SC(=S)N1c1cccnc1`, the cell number change stood at 13.2%. In addition, the AC50 under setting [2] is 0.00461 µM [rising, full curve, poor fit].
For `C=CCN1CC(O)=C(c2nc3ccccc3[nH]2)C1=N`, the AC50 under setting [1] is 0.58 µM [rising, single point].
For the molecule `COc1ccc(N2CCN(C(=O)Cn3ncc4c([nH]c5ccccc54)c3=O)CC2)cc1`, the cell number change is -7.46%. In addition, under setting [2], the AC50 is 14.6 µM [rising, single point].
Turning to `COCc1nc2sc3c(c2c(=O)[nH]1)CCCC3`, the AC50 under setting [2] is 11.6 µM [rising, partial curve, poor fit].
For the molecule `COc1ccc(N2C(=O)CC(C#N)=C2N)cc1`, the cell number change was -0.677%. Moreover, the AC50 under setting [2] is 29.1 µM [falling, partial curve, poor fit].
In the case of `Cc1ccccc1-c1nc(CS(=O)(=O)CC(=O)NCc2ccc3c(c2)OCO3)c(C)o1`, the cell number change was determined as 5.62%. Under setting [2], the AC50 was 14.6 µM [rising, partial curve].
For `CC(=O)N1CCN(S(=O)(=O)c2cccc(C(=O)OCC(=O)NC(=O)c3cccn3C)c2)CC1`, the cell number change worked out at 16.7%. In addition, the AC50 under setting [1] is 0.231 µM [rising, full curve, poor fit].
Consider `CC1=C(C(=O)Nc2ccccc2)C(c2ccccc2)N2C(=O)CSC2=N1` (configuration not stated), for which the cell number change is -10.5%. Further, the AC50 under setting [2] was 3.66 µM [rising, full curve, poor fit].
`Cc1cccn2c(=O)c(/C=C(\C#N)C(=O)NC3CCS(=O)(=O)C3)c(Oc3ccccc3Cl)nc12` (configuration not stated): the cell number change is -11.1%. Moreover, under setting [2], the AC50 is 29.1 µM [falling, single point].
`O=C(Nc1ccccc1N1CCOCC1)c1ccc(Cl)c(S(=O)(=O)N2CCCC2)c1`: the cell number change stood at 22.1%. For the same molecule, the AC50 under setting [2] was 25.9 µM [falling, partial curve].
Turning to `CCC1(C)Cc2ccccc2-c2nc(SCC(N)=O)[nH]c(=O)c21` (configuration not stated), the AC50 under setting [2] is 16.4 µM [rising, partial curve].
Regarding `COCCNC(=O)c1ccc(Cn2c(SCC(=O)NCC3CCCO3)nc3ccc(Br)cc3c2=O)cc1` (configuration not stated), the cell number change was -10.2%. For the same molecule, the AC50 under setting [1] was 2.31 µM [rising, single point].
Regarding `Cc1ccc(S(=O)(=O)N2CC(C)N(C(=O)N3CCOCC3)C2C)cc1` (configuration not stated), the cell number change was -25%.
As for `COC(=O)c1ccc(C(NC(=O)OCc2ccccc2)/C(C)=C/[C@@H](C)C(=O)NCc2ccc(-c3ccccc3)cc2)cc1` (some centres not stated), the cell number change was determined as 12.5%. Moreover, the AC50 under setting [2] was 1.16 µM [rising, full curve].
Consider `Cc1ccc(NC(=O)COc2coc(CN3CCN(c4ccccc4)CC3)cc2=O)cc1`, for which the cell number change was found to be 10.2%.
Take `COc1ccc(-c2nn(-c3ccccc3)cc2/C=C/C(=O)NCCCn2ccnc2)cc1OC`: the cell number change was -21.9%. The AC50 under setting [2] is 0.731 µM [rising, single point].
`Cc1ccc2nc3ccc(N4CCN(C)CC4)nn3c(=O)c2c1`: under setting [2], the AC50 was 0.00461 µM [rising, full curve, poor fit].
